Results on 6 molecules are retold here after article PMC4918316.

The chains behind the UniProt entries cited, without tags or fusion partners.
UniProt Q9P2N6: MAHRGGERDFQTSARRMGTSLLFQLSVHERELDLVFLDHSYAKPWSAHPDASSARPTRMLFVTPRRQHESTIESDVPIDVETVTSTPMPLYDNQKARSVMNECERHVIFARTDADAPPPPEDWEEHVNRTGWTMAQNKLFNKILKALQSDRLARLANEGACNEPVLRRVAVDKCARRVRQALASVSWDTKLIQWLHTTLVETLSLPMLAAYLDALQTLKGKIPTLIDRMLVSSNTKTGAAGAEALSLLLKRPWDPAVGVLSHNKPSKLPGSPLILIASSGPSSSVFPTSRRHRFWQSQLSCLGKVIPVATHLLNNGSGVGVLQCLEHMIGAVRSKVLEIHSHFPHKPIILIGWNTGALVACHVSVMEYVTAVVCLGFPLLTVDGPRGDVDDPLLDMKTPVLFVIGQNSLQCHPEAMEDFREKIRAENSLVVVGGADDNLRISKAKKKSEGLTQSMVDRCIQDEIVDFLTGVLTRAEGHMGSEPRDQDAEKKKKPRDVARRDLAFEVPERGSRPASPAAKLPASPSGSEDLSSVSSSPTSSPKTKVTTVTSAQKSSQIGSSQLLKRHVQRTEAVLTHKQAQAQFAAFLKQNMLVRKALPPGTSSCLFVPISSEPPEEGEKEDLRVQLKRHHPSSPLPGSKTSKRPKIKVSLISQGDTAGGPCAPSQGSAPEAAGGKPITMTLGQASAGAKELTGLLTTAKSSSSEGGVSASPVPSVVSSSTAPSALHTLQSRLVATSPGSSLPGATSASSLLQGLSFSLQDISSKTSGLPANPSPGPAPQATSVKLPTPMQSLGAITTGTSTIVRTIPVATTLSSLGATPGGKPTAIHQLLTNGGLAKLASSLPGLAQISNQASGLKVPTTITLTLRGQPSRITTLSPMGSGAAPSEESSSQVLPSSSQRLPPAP
UniProt Q96EZ8: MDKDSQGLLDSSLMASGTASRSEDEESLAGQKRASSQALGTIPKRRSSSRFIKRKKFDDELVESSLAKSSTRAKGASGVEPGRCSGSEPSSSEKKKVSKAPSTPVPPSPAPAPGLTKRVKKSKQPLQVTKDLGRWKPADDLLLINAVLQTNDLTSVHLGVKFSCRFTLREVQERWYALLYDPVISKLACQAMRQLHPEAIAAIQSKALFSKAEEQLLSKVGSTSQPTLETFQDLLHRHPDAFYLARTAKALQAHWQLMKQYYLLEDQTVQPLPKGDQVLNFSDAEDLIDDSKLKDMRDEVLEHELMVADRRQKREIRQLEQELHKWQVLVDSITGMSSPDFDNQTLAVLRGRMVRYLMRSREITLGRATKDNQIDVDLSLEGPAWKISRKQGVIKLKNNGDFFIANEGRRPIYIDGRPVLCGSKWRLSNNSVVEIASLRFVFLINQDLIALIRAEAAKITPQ
UniProt Q9ULW0: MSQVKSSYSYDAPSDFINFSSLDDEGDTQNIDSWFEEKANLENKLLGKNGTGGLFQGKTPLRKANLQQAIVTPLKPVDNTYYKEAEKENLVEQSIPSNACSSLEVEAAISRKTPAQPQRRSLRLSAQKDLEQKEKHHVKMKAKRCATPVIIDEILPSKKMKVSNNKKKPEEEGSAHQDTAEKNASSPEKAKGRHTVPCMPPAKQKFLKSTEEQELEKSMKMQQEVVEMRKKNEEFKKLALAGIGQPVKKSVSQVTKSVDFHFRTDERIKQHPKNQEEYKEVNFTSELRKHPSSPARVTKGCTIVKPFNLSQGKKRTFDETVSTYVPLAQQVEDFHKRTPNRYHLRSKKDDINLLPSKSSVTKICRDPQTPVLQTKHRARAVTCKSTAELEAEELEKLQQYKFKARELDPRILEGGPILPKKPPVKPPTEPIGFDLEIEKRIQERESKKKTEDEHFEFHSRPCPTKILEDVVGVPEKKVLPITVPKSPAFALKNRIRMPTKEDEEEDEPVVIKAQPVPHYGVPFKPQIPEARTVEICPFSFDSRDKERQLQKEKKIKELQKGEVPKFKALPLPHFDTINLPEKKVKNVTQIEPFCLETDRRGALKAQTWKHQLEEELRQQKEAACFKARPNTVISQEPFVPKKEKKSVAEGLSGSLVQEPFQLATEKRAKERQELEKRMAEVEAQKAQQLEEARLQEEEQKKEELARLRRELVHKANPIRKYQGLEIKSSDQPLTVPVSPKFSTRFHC

Assay [1] deals with human KANSL3 tagged with 3FLAG (human) (UniProt Q9P2N6). As to the kind of experiment: pull-down; all seven members co-expressed in SF21 cells, only KANSL3 tagged (3FLAG); cell extract incubated with FLAG beads; done separately for the human and the Drosophila complex.
A further assay concerns the target T1, KANSL1-FBH (UniProt Q7Z3B3).
T1 sequence: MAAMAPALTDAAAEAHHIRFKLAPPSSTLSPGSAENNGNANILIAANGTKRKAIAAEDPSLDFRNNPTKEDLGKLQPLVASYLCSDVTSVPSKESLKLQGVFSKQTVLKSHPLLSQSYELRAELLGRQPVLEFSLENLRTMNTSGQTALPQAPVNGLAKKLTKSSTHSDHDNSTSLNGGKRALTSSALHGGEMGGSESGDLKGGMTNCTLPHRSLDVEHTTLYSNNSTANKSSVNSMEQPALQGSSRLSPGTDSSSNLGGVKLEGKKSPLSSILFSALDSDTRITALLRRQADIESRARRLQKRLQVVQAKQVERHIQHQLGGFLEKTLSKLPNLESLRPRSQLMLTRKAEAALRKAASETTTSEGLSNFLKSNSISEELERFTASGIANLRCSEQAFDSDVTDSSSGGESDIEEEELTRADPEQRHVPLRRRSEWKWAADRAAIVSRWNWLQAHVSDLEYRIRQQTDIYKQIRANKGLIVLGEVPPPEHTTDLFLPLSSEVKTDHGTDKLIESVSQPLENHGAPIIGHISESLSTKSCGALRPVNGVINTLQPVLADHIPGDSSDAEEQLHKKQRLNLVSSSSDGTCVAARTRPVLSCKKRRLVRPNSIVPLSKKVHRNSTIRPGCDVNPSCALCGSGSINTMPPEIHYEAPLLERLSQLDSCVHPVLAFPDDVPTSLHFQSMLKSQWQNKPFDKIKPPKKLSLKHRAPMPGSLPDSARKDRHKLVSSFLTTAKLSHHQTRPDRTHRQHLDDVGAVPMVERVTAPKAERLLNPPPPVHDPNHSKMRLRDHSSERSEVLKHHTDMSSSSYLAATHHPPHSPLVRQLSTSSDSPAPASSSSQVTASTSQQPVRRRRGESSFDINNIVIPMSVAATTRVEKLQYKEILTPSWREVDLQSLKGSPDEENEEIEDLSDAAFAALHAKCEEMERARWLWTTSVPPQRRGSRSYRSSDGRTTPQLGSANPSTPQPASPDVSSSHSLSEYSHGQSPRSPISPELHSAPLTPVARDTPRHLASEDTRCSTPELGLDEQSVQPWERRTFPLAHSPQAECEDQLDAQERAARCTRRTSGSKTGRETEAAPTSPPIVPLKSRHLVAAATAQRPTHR
As to the kind of experiment: co-IP; FLAG beads on lysates of synchronized cells (HEK293 Flp-In Trex lines, mitosis by STLC); washed in 25 mM HEPES pH 7.6, 75 mM KCl, 12.5 mM MgCl2, 10% glycerol, 0.1% Tween20.

For the next assay, the target named is KANSL3-FBH (UniProt Q9P2N6). The description is as above.
Another assay addresses MCRS1-FBH (UniProt Q96EZ8). The assay is described as above.
Assay [2] has as its target T2, 3FLAG/HA-tagged Drosophila males absent on the first (MOF) (Drosophila melanogaster) (UniProt O02193).
T2 sequence: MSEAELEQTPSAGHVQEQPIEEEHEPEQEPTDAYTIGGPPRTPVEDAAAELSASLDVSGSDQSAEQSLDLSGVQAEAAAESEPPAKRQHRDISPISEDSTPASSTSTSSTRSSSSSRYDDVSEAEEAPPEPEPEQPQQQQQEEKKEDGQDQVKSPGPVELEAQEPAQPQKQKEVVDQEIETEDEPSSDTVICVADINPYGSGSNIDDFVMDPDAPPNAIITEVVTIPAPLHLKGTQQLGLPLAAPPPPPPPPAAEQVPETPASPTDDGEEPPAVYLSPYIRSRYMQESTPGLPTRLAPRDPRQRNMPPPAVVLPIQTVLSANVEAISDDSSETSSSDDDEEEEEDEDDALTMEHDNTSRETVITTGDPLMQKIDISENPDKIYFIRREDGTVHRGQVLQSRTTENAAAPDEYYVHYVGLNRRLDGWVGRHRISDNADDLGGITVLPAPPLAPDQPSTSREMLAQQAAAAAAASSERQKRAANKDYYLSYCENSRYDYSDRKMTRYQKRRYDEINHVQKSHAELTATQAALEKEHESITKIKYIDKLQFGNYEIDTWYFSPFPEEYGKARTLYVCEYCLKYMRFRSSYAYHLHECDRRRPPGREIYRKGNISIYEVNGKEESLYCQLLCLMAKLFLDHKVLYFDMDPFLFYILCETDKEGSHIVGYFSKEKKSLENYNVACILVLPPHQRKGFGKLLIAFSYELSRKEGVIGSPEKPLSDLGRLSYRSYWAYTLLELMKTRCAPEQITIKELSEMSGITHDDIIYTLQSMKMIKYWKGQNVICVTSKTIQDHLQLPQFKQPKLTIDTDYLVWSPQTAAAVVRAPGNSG
As to the kind of experiment: pull-down; recombinant 3FLAG/HA protein at 100 nM incubated in CSF-arrested Xenopus egg extract with 10 uM RanGTPQ69L, retrieved on Protein A Dynabeads coupled with anti-HA antibodies; western blot of the beads; only the target purified. Background: Immunoblotting shows a protein as a band on a membrane.

No constants are given. Whether binding was seen depends on the method and setting. Binding seen in cells or lysates may run through a third protein. Some entries that bind do so weakly or less than the wild type. For some assays here: Tags and fused reporters may be left off the sequences shown.

As to “human MCRS1, untagged (from UniProt Q96EZ8 1-462)”, the binding entry in assay [1] is listed as “binds”. Regarding “TPX2 (mammalian cells) (from UniProt Q9ULW0 1-747)”, the binding result with KANSL1-FBH, in the assay with KANSL3-FBH and in the assay with MCRS1-FBH was “binds” in each case.

B1: human KANSL1, untagged (protein, UniProt Q7Z3B3 1-1105)
chain: T1 sequence
B1: the binding entry in assay [1] is listed as “binds”.

B2: human PHF20, untagged (protein, UniProt Q9BVI0 1-1012)
chain: MTKHPPNRRGISFEVGAQLEARDRLKNWYPAHIEDIDYEEGKVLIHFKRWNHRYDEWFCWDSPYLRPLEKIQLRKEGLHEEDGSSEFQINEQVLACWSDCRFYPAKVTAVNKDGTYTVKFYDGVVQTVKHIHVKAFSKDQNIVGNARPKETDHKSLSSSPDKREKFKEQRKATVNVKKDKEDKPLKTEKRPKQPDKEGKLICSEKGKVSEKSLPKNEKEDKENISENDREYSGDAQVDKKPENDIVKSPQENLREPKRKRGRPPSIAPTAVDSNSQTLQPITLELRRRKISKGCEVPLKRPRLDKNSSQEKSKNYSENTDKDLSRRRSSRLSTNGTHEILDPDLVVSDLVDTDPLQDTLSSTKESEEGQLKSALEAGQVSSALTCHSFGDGSGAAGLELNCPSMGENTMKTEPTSPLVELQEISTVEVTNTFKKTDDFGSSNAPAVDLDHKFRCKVVDCLKFFRKAKLLHYHMKYFHGMEKSLEPEESPGKRHVQTRGPSASDKPSQETLTRKRVSASSPTTKDKEKNKEKKFKEFVRVKPKKKKKKKKKTKPECPCSEEISDTSQEPSPPKAFAVTRCGSSHKPGVHMSPQLHGPESGHHKGKVKALEEDNLSESSSESFLWSDDEYGQDVDVTTNPDEELDGDDRYDFEVVRCICEVQEENDFMIQCEECQCWQHGVCMGLLEENVPEKYTCYVCQDPPGQRPGFKYWYDKEWLSRGHMHGLAFLEENYSHQNAKKIVATHQLLGDVQRVIEVLHGLQLKMSILQSREHPDLPLWCQPWKQHSGEGRSHFRNIPVTDTRSKEEAPSYRTLNGAVEKPRPLALPLPRSVEESYITSEHCYQKPRAYYPAVEQKLVVETRGSALDDAVNPLHENGDDSLSPRLGWPLDQDRSKGDSDPKPGSPKVKEYVSKKALPEEAPARKLLDRGGEGLLSSQHQWQFNLLTHVESLQDEVTHRMDSIEKELDVLESWLDYTGELEPPEPLARLPQLKHCIKQLLMDLGKVQQIALCCST
As for B2, the binding result in assay [1] was “binds”.

B3: MCAK of Xenopus egg extract (protein, UniProt Q91636 1-730)
chain: MERLVATRLVTGLAVKIMRSNGVIHNANITSVNMDRSSVNVEWKEGEANKGKEISFADVISVNPELLDAVLAPTNVKENMPPQRNVSSQNHKRKTISKIPAPKEVAAKNSLLSESGAQSVLRERSTRMTAIHETLPYENEMEAESTPLPIQQNSVQARSRSTKVSIAEEPRLQTRISEIVEESLPSGRNNQGRRKSNIVKEMEKMKNKREEQRAQNYERRMKRAQDYDTSVPNWEFGKMIKEFRATMDCHRISMADPAEEHRICVCVRKRPLNKQELSKKEIDIISVPSKNIVLVHEPKLKVDLTKYLENQAFRFDFSFDETATNEVVYRFTARPLVQSIFEGGKATCFAYGQTGSGKTHTMGGDFSGKSQNVSKGVYAFASRDVFLLLDQPRYKHLDLDVFVTFFEIYNGKVFDLLNKKTKLRVLEDAKQEVQVVGLLEKQVISADDVFKMIEIGSACRTSGQTFANTSSSRSHACLQIILRRGSKLHGKFSLVDLAGNERGVDTASADRITRMEGAEINRSLLALKECIRALGQNKSHTPFRESKLTQILRDSFIGENSRTCMIAMLSPGFNSCEYTLNTLRYADRVKELSPQNAETNDDNLQMEDSGGSHASIEGLQLQDDFLLKDEELSTHNSFQDALNRVGELEDKAVDELRELVQKEPEWTNLLQMTEQPDYDLENFVMQAEYLIQERSKVLIALGDSINSLRLALQVEEQASKQISKKKRSNK
With B3, in assay [2], the binding result is given as “no binding”.

B4: human KANSL2, untagged (protein, UniProt Q9H9L4 1-492)
chain: MNRIRIHVLPTNRGRITPVPRSQEPLSCAFTHRPCSHPRLEGQEFCIKHILEDKNAPFKQCSYISTKNGKRCPNAAPKPEKKDGVSFCAEHVRRNALALHAQMKKTNPGPVGETLLCQLSSYAKTELGSQTPESSRSEASRILDEDSWSDGEQEPITVDQTWRGDPDSEADSIDSDQEDPLKHAGVYTAEEVALIMREKLIRLQSLYIDQFKRLQHLLKEKKRRYLHNRKVEHEALGSSLLTGPEGLLAKERENLKRLKCLRRYRQRYGVEALLHRQLKERRMLATDGAAQQAHTTRSSQRCLAFVDDVRCSNQSLPMTRHCLTHICQDTNQVLFKCCQGSEEVPCNKPVPVSLSEDPCCPLHFQLPPQMYKPEQVLSVPDDLEAGPMDLYLSAAELQPTESLPLEFSDDLDVVGDGMQCPPSPLLFDPSLTLEDHLVKEIAEDPVDILGQMQMAGDGCRSQGSRNSEKASAPLSQSGLATANGKPEPTSIS
For B4, the binding entry in assay [1] is given as “binds”.
